Experimental data as given in patent US8216786B2, “Genetic polymorphisms associated with cardiovascular diseases, methods of detection and uses thereof” (Celera Corporation, priority 2008, dated 2012).
This continues a long series; more values of the same kind are listed elsewhere.

System: individuals who have previously had an MI
Experiment: CARE trial: effect of pravastatin vs placebo on coronary events (endpt1, rmi) by SNP genotype subgroup
Type: in vivo, human
Details: endpt1
Procedure: In Tables 21-22, the column labeled “Endpoint” indicates whether the endpoint that was analyzed was the primary endpoint of the CARE study (a composite endpoint of fatal coronary event or nonfatal MI, and identified as “endpt1”) or a composite endpoint of confirmed fatal or nonfatal MI (identified as “rmi”). […] As used herein, the term “benefit” (with respect to a preventive or therapeutic drug treatment) is defined as achieving a reduced risk for a disease that the drug is intended to treat or prevent (e.g., CVD such as CHD, particularly MI, or hypertension) by administering the drug treatment, compared with the risk for the disease in the absence of receiving the drug treatment (or receiving a placebo in lieu of the drug treatment) for the same genotype. […] J. […] (1996) New England Journal of Medicine 335: 1001-1009. […] A well-documented MI was one of the enrollment criteria for entry into the CARE study. Patients were enrolled in the CARE trial from 80 participating study centers. […] For the study of CARE described in this Example and shown in Tables 21-22, two endpoints were investigated: the primary endpoint of CARE (a composite endpoint of fatal coronary event or nonfatal MI, and identified as “endpt1” in the Endpoint column of Tables 21-22) and a composite endpoint of confirmed fatal or nonfatal MI (identified as “rmi” in the Endpoint column of Tables 21-22). […] HR stands for Hazard Ratio, which is a concept similar to Odds Ratio (OR). The HR in event-free survival analysis is the effect of an explanatory variable on the hazard or risk of an event. […] In Table 21, p-interaction values were calculated. An interaction (or effect modification) is formed when a third variable modifies the relation between an exposure and outcome. […] Genotype and drug interaction is present when the effect of statins (incidence rate of disease in statin-treated group, as compared to placebo) differs in patients with different genotypes.

[1] = hCV15851335 rs17610395 CPT1A, Strata TC + TT
[2] = hCV15851779 rs2230009 WRN, Strata AA
[3] = hCV15851779 rs2230009 WRN, Strata AG
[4] = hCV15851779 rs2230009 WRN, Strata GG
[5] = hCV15870728 rs2943245 C10orf64, strata CC
[6] = hCV15876011 rs2228541 SERPINA6, Strata GG
[7] = hCV15876011 rs2228541 SERPINA6, Strata GT + TT
[8] = hCV15954277 rs2236379 PRKCQ, Strata AA
[9] = hCV15954277 rs2236379 PRKCQ, Strata AG + GG
[10] = hCV15955388 rs2227376 F2RL3, Strata CC
[11] = hCV15955388 rs2227376 F2RL3, Strata TC + TT
[12] = hCV15963535 rs2228591 NCOA2, Strata CC
[13] = hCV15963535 rs2228591 NCOA2, Strata GC + GG
[14] = hCV16044337 rs2569491 KLK14, Strata AA
[15] = hCV16044337 rs2569491 KLK14, Strata AG + GG
[16] = hCV16047108 rs2244008 LAMA2, Strata AA
[17] = hCV16047108 rs2244008 LAMA2, Strata GA + GG
[18] = hCV16172339 rs2229489 HSPG2, Strata PA
[19] = hCV16172339 rs2229489 HSPG2, Strata TA + TT
[20] = hCV16173091 rs2241883 FABP1, Strata CC
[21] = hCV16173091 rs2241883 FABP1, Strata CT + TT
[22] = hCV16179493 rs2106622 CYP4F2, Strata CC
[23] = hCV16179493 rs2108622 CYP4F2, Strata TC + TT
[24] = hCV16179628 rs2273697 ABCC2, Strata AA
[25] = hCV16179628 rs2273697 ABCC2, Strata AG + GG
[26] = hCV16182835 rs2274736 PTPN21, Strata AA
[27] = hCV16182835 rs2274736 PTPN21, Strata GA + GG
[28] = hCV16192174 rs2305948 KDR, Strata AG + AA
[29] = hCV16192174 rs2305948 KDR, Strata GG
[30] = hCV22271999 rs2305946 KDR, Strata TC + TT
[31] = hCV22271999 rs2305948 KDR, Strata CC
[32] = hCV22274761 rs11575194 IGFBP5, Strata AG + AA
[33] = hCV22274761 rs11575194 IGFBP5, Strata GG
[34] = hCV22275550 rs6836335 SPON2, Strata CC
[35] = hCV22275550 rs6836335 SPON2, Strata CT + TT
[36] = hCV25472345 rs4900072 C14orf159, Strata TC + CC
[37] = hCV25472345 rs4900072 C14orf159, Strata TT
[38] = hCV25472673 rs1805081 NPC1, Strata CT + CC
[39] = hCV25472673 rs1805081 NPC1, Strata TT
[40] = hCV25473098 rs2241883 FABP1, Strata GA + AA
[41] = hCV25473098 rs2241883 FABP1, Strata GG
[42] = hCV25474101 rs41554412 MICA, Strata CC
[43] = hCV25474101 rs41554412 MICA, Strata CT + TT
[44] = hCV25591528 CD163, Strata AG + AA
[45] = hCV25596880 rs4647297 CASP2, Strata CC
[46] = hCV25596880 rs4647297 CASP2, Strata CG
[47] = hCV25596880 rs4647297 CASP2, Strata GG
[48] = hCV25598594 rs41274768 CR1, Strata AG + AA
[49] = hCV25598594 rs41274768 CR1, Strata GG
[50] = hCV25603879 rs11542844 SCNN1A, Strata CC
[51] = hCV25603879 rs11542844 SCNN1A, Strata TC + TT

Question: Which results are given for CC[C@H](C)C(=O)O[C@H]1C[C@H](O)C=C2C=C[C@H](C)[C@H](CC[C@@H](O)C[C@@H](O)CC(=O)O)[C@H]21 [pravastatin]?
Answer: NONEVENT (Pravastatin arm) (hCV15851335 rs17610395 CPT1A, Strata CC): 1123; EVENTS (Pravastatin arm) [1]: 21; NONEVENT (Pravastatin arm) [1]: 164; EVENTS (Pravastatin arm) [2]: 0; NONEVENT (Pravastatin arm) [2]: 6; EVENTS (Pravastatin arm) [3]: 20; NONEVENT (Pravastatin arm) [3]: 132; EVENTS (Pravastatin arm) [4]: 113; NONEVENT (Pravastatin arm) [4]: 1150; EVENTS (Pravastatin arm) [5]: 30; NONEVENT (Pravastatin arm) [5]: 340; EVENTS (Pravastatin arm) [6]: 35; NONEVENT (Pravastatin arm) [6]: 261; EVENTS (Pravastatin arm) [7]: 96; NONEVENT (Pravastatin arm) [7]: 991; EVENTS (Pravastatin arm) [8]: 13; NONEVENT (Pravastatin arm) [8]: 103; EVENTS (Pravastatin arm) [9]: 120; NONEVENT (Pravastatin arm) [9]: 1188; EVENTS (Pravastatin arm) [10]: 132; NONEVENT (Pravastatin arm) [10]: 1247; EVENTS (Pravastatin arm) [11]: 1; NONEVENT (Pravastatin arm) [11]: 42; EVENTS (Pravastatin arm) [12]: 124; NONEVENT (Pravastatin arm) [12]: 1155; EVENTS (Pravastatin arm) [13]: 8; NONEVENT (Pravastatin arm) [13]: 132; EVENTS (Pravastatin arm) [14]: 7; NONEVENT (Pravastatin arm) [14]: 127; EVENTS (Pravastatin arm) [15]: 126; NONEVENT (Pravastatin arm) [15]: 1157; EVENTS (Pravastatin arm) [16]: 104; NONEVENT (Pravastatin arm) [16]: 1148; EVENTS (Pravastatin arm) [17]: 28; NONEVENT (Pravastatin arm) [17]: 140; EVENTS (Pravastatin arm) [18]: 121; NONEVENT (Pravastatin arm) [18]: 1140; EVENTS (Pravastatin arm) [19]: 11; NONEVENT (Pravastatin arm) [19]: 147; EVENTS (Pravastatin arm) [20]: 18; NONEVENT (Pravastatin arm) [20]: 126; EVENTS (Pravastatin arm) [21]: 115; NONEVENT (Pravastatin arm) [21]: 1164; EVENTS (Pravastatin arm) [22]: 54; NONEVENT (Pravastatin arm) [22]: 613; EVENTS (Pravastatin arm) [23]: 77; NONEVENT (Pravastatin arm) [23]: 670; EVENTS (Pravastatin arm) [24]: 1; NONEVENT (Pravastatin arm) [24]: 68; EVENTS (Pravastatin arm) [25]: 132; NONEVENT (Pravastatin arm) [25]: 1220; EVENTS (Pravastatin arm) [26]: 70; NONEVENT (Pravastatin arm) [26]: 555; EVENTS (Pravastatin arm) [27]: 62; NONEVENT (Pravastatin arm) [27]: 703; EVENTS (Pravastatin arm) [28]: 37; NONEVENT (Pravastatin arm) [28]: 248; EVENTS (Pravastatin arm) [29]: 96; NONEVENT (Pravastatin arm) [29]: 1043; EVENTS (Pravastatin arm) [30]: 37; NONEVENT (Pravastatin arm) [30]: 248; EVENTS (Pravastatin arm) [31]: 96; NONEVENT (Pravastatin arm) [31]: 1041; EVENTS (Pravastatin arm) [32]: 6; NONEVENT (Pravastatin arm) [32]: 108; EVENTS (Pravastatin arm) [33]: 126; NONEVENT (Pravastatin arm) [33]: 1175; EVENTS (Pravastatin arm) [34]: 3; NONEVENT (Pravastatin arm) [34]: 15; EVENTS (Pravastatin arm) [35]: 129; NONEVENT (Pravastatin arm) [35]: 1270; EVENTS (Pravastatin arm) [36]: 124; NONEVENT (Pravastatin arm) [36]: 1108; EVENTS (Pravastatin arm) [37]: 8; NONEVENT (Pravastatin arm) [37]: 154; EVENTS (Pravastatin arm) [38]: 74; NONEVENT (Pravastatin arm) [38]: 803; EVENTS (Pravastatin arm) [39]: 59; NONEVENT (Pravastatin arm) [39]: 484; EVENTS (Pravastatin arm) [40]: 115; NONEVENT (Pravastatin arm) [40]: 1165; EVENTS (Pravastatin arm) [41]: 18; NONEVENT (Pravastatin arm) [41]: 124; EVENTS (Pravastatin arm) [42]: 7; NONEVENT (Pravastatin arm) [42]: 25; EVENTS (Pravastatin arm) [43]: 126; NONEVENT (Pravastatin arm) [43]: 1266; EVENTS (Pravastatin arm) [44]: 19; NONEVENT (Pravastatin arm) [44]: 296; EVENTS (Pravastatin arm) (hCV25591528 CD163, Strata GG): 114; NONEVENT (Pravastatin arm) (hCV25591528 CD163, Strata GG): 994; EVENTS (Pravastatin arm) [45]: 2; NONEVENT (Pravastatin arm) [45]: 3; EVENTS (Pravastatin arm) [46]: 12; NONEVENT (Pravastatin arm) [46]: 136; EVENTS (Pravastatin arm) [47]: 118; NONEVENT (Pravastatin arm) [47]: 1150; EVENTS (Pravastatin arm) [48]: 1; NONEVENT (Pravastatin arm) [48]: 65; EVENTS (Pravastatin arm) [49]: 132; NONEVENT (Pravastatin arm) [49]: 1226; EVENTS (Pravastatin arm) [50]: 122; NONEVENT (Pravastatin arm) [50]: 1200; EVENTS (Pravastatin arm) [51]: 11; NONEVENT (Pravastatin arm) [51]: 89
